Test results as given in publication PMC10060162, “Structural basis of mitochondrial membrane bending by the I–II–III2–IV2 supercomplex” (Nature, 2023).

Target: NDUCA1 (Tetrahymena thermophila)
Experiment: cryo-EM structure; single-particle cryo-EM of the native supercomplex co-purified from T. thermophila mitochondria; buffer D (25 mM HEPES-KOH pH 7.5, 25 mM KCl, 5 mM MgCl2, 0.1% w/v digitonin); 2.9 Å overall, masked refinements 2.6-3.0 Å; both purified

binding: binds
B1: COX3b (protein, UniProt Q950Y6 1-594)
chain: MLICNFLMYSNFSRIYWFDFNGTVNENLPLNYNVLKICRNEINKLEKLNENNLGTQKNPIKLNLSFEDKHYNTNNLVLDLNSYETFNSKNFISSIFDKTFESLNTVLMAPIYSFLEFKLKLSSTKINTNHYYVINGKLYITYNDSFKLFTTINDYFNDLNELSNTKLFFLYRSFNIYNIKLNSLVDFVFLKLILFIHLLYLKSTNYNRFDYRLKQTDWGFYINNNSNYIQNIFSGLKYIWRGLRFWIIGLLLGLSSIYYLMYVRLLPFNKIIFAWILVAMFLYWLLSGFVFFVKKYQYSKFTAAIQRFWKRTYIIFWVIEAGTFSVFFYLTLNASSEPVYMYDQIKIYKTHLFSWRWFLIKLLPSVSIILLGYYLQLTLKWNLFNKQNTIVLLITLLLLYILWLEFYQFYHILSFYGNINWAFDYDEYIWTLELDTRRTRLANNYIAICLFAKFWHFVFIFLFWVFFVLRINELGRIRYPLLVANVQNFIIIYIMSWAYMYPWLKFIFRKYLDVPYYWFYLNGRELGIRVFFTDLKLFFYGITNRLFDFNPSSIKFEKYPFYYWINSSQLTEFNQYRKFVIRDSIIYSLNNYII

These are yes or no findings as the source states them, for the method shown. In cells and extracts the contact can be indirect. Binding can be weak; no strength is given.
